{"sequences": {"note": "Sequences of proteins named here, by UniProt entry; tags and fusion partners are left off. A change or cut given only in a name is not applied to a line headed by its entry. A line that says so, or that is headed by a name, gives the form on record, which may keep a tag or linker.", "human Tyrosine kinase receptor B (TrkB) (Q16620, form named)": "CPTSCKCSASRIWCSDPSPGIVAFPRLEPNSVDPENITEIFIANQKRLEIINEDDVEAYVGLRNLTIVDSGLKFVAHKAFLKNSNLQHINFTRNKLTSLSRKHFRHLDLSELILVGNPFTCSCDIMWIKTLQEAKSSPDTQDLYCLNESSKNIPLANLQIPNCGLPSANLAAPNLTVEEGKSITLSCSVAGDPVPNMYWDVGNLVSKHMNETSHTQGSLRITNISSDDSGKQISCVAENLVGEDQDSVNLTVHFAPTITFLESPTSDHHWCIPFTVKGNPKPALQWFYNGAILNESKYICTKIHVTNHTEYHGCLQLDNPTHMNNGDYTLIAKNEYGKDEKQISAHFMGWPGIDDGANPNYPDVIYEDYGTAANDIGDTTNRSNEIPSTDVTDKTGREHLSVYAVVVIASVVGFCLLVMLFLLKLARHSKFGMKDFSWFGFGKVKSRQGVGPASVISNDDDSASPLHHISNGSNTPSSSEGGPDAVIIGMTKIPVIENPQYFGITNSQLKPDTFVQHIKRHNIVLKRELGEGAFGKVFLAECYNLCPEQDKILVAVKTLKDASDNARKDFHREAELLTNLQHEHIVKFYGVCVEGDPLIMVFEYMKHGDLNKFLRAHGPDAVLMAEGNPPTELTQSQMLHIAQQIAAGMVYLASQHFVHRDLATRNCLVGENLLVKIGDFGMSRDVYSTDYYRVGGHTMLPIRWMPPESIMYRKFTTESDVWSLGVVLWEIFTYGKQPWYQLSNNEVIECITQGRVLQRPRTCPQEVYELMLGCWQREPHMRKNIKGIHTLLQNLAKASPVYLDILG"}, "source": "paper PMC3659094", "binders": {"B1": {"name": "SHC1 (protein, UniProt P29353 1-583)", "chain": "MDLLPPKPKYNPLRNESLSSLEEGASGSTPPEELPSPSASSLGPILPPLPGDDSPTTLCSFFPRMSNLRLANPAGGRPGSKGEPGRAADDGEGIVGAAMPDSGPLPLLQDMNKLSGGGGRRTRVEGGQLGGEEWTRHGSFVNKPTRGWLHPNDKVMGPGVSYLVRYMGCVEVLQSMRALDFNTRTQVTREAISLVCEAVPGAKGATRRRKPCSRPLSSILGRSNLKFAGMPITLTVSTSSLNLMAADCKQIIANHHMQSISFASGGDPDTAEYVAYVAKDPVNQRACHILECPEGLAQDVISTIGQAFELRFKQYLRNPPKLVTPHDRMAGFDGSAWDEEEEEPPDHQYYNDFPGKEPPLGGVVDMRLREGAAPGAARPTAPNAQTPSHLGATLPVGQPVGGDPEVRKQMPPPPPCPGRELFDDPSYVNVQNLDKARQAVGGAGPPNPAINGSAPRDLFDMKPFEDALRVPPPPQSVSMAEQLRGEPWFHGKLSRREAEALLQLNGDFLVRESTTTPGQYVLTGLQSGQPKHLLLVDPEGVVRTKDHRFESVSHLISYHMDNHLPIISAGSELCLQQPVERKL"}}, "target": "human Tyrosine kinase receptor B (TrkB) (human) (UniProt Q16620)", "assay": "split reporter; Pathhunter technology (Discoverx), chemiluminescent signal; U2OS cells over-expressing human TrkB, 384-well plate, MEM + 0.5% horse serum; agonist (TAM-163 or BDNF) 3 hours at room temperature, substrate 1 hour; triplicate", "note": "Results are given in words; binding and its absence hold for the method and conditions named. In cells and extracts the contact can be indirect. Some results given as binding are weak or reduced against the parent protein; the word gives no strength.", "data": [{"binder": "B1", "values": [{"measurement": "binding", "result": "binds"}]}]}
